Experimental data reported in patent US20120177701A1, “COMPOSITIONS COMPRISING IMMUNOSTIMULATORY NUCLEIC ACIDS AND RELATED METHODS” (priority 2010, published 2012).
Some entries share one result that the patent states for a list of compounds.

Assays:
[1] = target: T1, human TLR8 (Homo sapiens, UniProt Q9NR97); assay: HEK-Blue hTLR8 NF-kB-inducible SEAP reporter assay (TLR8 activation); type: cell-based
T1 construct: host or cells: HEK293 (HEK-Blue hTLR8) with NF-kB-inducible SEAP reporter
T1 sequence (Q9NR97 27-1041): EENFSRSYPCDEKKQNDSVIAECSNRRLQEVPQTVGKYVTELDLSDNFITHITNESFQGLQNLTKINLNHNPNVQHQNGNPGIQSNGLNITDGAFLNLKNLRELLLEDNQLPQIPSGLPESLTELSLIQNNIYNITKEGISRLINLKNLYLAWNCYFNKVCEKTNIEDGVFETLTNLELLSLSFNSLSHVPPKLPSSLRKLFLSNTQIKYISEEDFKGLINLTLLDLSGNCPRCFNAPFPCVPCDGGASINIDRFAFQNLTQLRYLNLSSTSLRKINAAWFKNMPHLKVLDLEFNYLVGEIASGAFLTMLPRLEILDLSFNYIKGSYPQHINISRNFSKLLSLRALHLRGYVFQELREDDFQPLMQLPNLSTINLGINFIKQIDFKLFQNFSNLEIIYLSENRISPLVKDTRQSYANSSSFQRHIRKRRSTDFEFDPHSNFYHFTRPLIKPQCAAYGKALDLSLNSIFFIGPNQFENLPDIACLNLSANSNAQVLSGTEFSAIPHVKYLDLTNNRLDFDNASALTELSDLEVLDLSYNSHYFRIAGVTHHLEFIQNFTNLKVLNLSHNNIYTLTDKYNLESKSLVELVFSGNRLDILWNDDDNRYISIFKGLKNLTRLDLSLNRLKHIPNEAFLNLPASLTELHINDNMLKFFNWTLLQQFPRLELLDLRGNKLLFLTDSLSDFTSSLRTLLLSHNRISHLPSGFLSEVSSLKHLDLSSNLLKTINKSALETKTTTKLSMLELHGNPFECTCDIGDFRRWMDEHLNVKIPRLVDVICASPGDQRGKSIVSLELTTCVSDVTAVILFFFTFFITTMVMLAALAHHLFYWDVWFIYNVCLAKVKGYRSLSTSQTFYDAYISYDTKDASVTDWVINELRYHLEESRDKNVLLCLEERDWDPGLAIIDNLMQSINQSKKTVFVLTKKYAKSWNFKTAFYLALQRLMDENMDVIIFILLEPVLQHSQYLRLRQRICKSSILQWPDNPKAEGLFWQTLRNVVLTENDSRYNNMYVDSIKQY

[2] = test system: J774 murine macrophages; assay: TNF-α induction in mouse macrophage cell line J774; type: cell-based
Description: Induction of TNF-α by macrophages is a hallmark of human TLR8 activation (Forsbach et al., 2008, J. Immunol., 180:3729-38; Ghosh et al., 2007, Int. Immunopharmacol., 7:1111-21; Gorden et al., 2005, J. Immunol., 174:1259-68). […] In the following experiment mouse macrophage cell line, J774, has been transfected by test ribonucleotides as described above for HEK-Blue™ hTLR8 cells (with the exception that 2-10×10^4 cells/well were used) and TNF-α was measured in culture supernatants at 16-20 hours after transfection.

| Substance | concentration range in which TLR8 activation reached plateau [1] | concentration at which TNF-α induction reaches plateau [2] | concentration interval in which TNF-α induction starts [2] |
| --- | --- | --- | --- |
| 5′-AAGAAGAAAUAGAUUUAUUUUUAAAUUUUUGUGU-3′ [SL-0005] | 100 to 300 nM | 100 to 150 nM | 10 to 15 nM |
| 5′-GAGAUGUUAUUUUGUUUUUAAUAUUUC-3′ (phosphorothioate backbone, further chemistry not given here) [SL-0001, phosphorothioated 27-ribonucleotide from the 3′-terminus of Chikungunya virus strain TSI-GSD-218, bases 12010-12036] | 100 to 300 nM | 100 to 150 nM | 10 to 15 nM |
